The assay deals with T1, meiotic nuclear divisions 1 (MND1), Flag-tagged (UniProt Q9BWT6).
T1 sequence: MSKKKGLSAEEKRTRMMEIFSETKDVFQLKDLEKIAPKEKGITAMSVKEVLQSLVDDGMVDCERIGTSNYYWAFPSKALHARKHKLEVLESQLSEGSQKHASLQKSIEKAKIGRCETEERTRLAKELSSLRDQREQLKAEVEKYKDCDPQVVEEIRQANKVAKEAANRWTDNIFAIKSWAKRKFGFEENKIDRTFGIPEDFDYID
In words: affinity purification with mass spectrometry; HGC27 cells transfected with the Flag-MND1 vector, lysed with a CO-IP kit (Absin); input, IP and IgG groups; LC-MS/MS of the precipitate.

The values that follow come from paper PMC10566187.

No constants are given. Whether binding was seen depends on the method and setting. Binding seen in cells or lysates may run through a third protein. A yes stands for co-enrichment or nearness to the bait. Other partners may have been found. Tags and fused reporters may be left off the sequences shown.

B1: transketolase (TKT) (protein, UniProt P29401 1-623)
chain: MESYHKPDQQKLQALKDTANRLRISSIQATTAAGSGHPTSCCSAAEIMAVLFFHTMRYKSQDPRNPHNDRFVLSKGHAAPILYAVWAEAGFLAEAELLNLRKISSDLDGHPVPKQAFTDVATGSLGQGLGAACGMAYTGKYFDKASYRVYCLLGDGELSEGSVWEAMAFASIYKLDNLVAILDINRLGQSDPAPLQHQMDIYQKRCEAFGWHAIIVDGHSVEELCKAFGQAKHQPTAIIAKTFKGRGITGVEDKESWHGKPLPKNMAEQIIQEIYSQIQSKKKILATPPQEDAPSVDIANIRMPSLPSYKVGDKIATRKAYGQALAKLGHASDRIIALDGDTKNSTFSEIFKKEHPDRFIECYIAEQNMVSIAVGCATRNRTVPFCSTFAAFFTRAFDQIRMAAISESNINLCGSHCGVSIGEDGPSQMALEDLAMFRSVPTSTVFYPSDGVATEKAVELAANTKGICFIRTSRPENAIIYNNNEDFQVGQAKVVLKSKDDQVTVIGAGVTLHEALAAAELLKKEKINIRVLDPFTIKPLDRKLILDSARATKGRILTVEDHYYEGGIGEAVSSAVVGEPGITVTHLAVNRVPRSGKPAELLKMFGIDRDAIAQAVRGLITKA
In the case of B1, the binding entry is “binds”.
